Test results as given in PubChem BioAssay AID1347423 (Functional Genomics Laboratory (NCATS/FGL), 2020).
About 210 (0.4%) of roughly 52,000 sequences were called active.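 Rule for the calls: active = gene whose silencing raises cell survival under the drug, median off-target-corrected z-score across its silencing RNAs 2 or more; inactive = the rest.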 The list shows a part of the results.

Test: Resistance to Poly (ADP-Ribose) Polymerase inhibitor: Gene Identification via Genome-wide siRNA Screen
Settings: mouse BRCA2 R2336H ES cells, olaparib, CellTiter-Glo viability; hits give high values
In short: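 Mouse BRCA2 R2336H ES cells were reverse-transfected with siRNA (20 nM final), treated at 48 h with 500 nM olaparib, and read by CellTiter-Glo after 72 h. Scores: MAD-based z per siRNA, median per gene, seed off-target correction.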

Row | Sequence | z-score
1 | GGGUUUUCACUCAAAAAAATT against Aup1 | inactive: 1.8
2 | GGAAUAAGGAAGUAAAGAUTT against Olfr958 | inactive: -0.0544
3 | GGAAAUGACAUCUUCCUUGTT against 2410006N06Rik | inactive: 0.694
4 | GGUUCGGCUCAUCUACCAATT against 2010004O20Rik | inactive: 1.12
5 | CGAUGAAGCCGGAUUGAGATT against 1700010H22Rik | inactive: 0.459
6 | CCACCGGAAUGACAUAAUGTT against 2310015I08Rik | inactive: 0.829
7 | GGAUGUGGUUCAGAAGGCCTT against Stab1 | inactive: 1.22
8 | GGGAAGAGCAGAAGUCUGUTT against Myod1 | inactive: 1.67
9 | CGCGAUGGAACCAUAGUCATT against Nagpa | inactive: -0.0821
10 | GCCAUUCUAAGAGGGCCUCTT against Stk10 | inactive: 0.0504
11 | GGAGUUUUCAAAAAACAGATT against Dsc2 | inactive: 1.45
12 | GCUUGGAGAUGAACUCUAATT against Olfr533 | inactive: -1.41
13 | GCUCGAGUACCUGUACCUATT against A930017N06Rik | inactive: -0.921
14 | GGCAUGCCUGUUGCUAUGATT against Cyp3a44 | inactive: -1.71
15 | GGCUUCAAACACUUCCUUGTT against D030001E08 | inactive: 0.314
16 | GGAGUUUAUGUGAGUGGCATT against Olfr170 | inactive: -0.945
17 | GGGCAUCUCUCAGCAAUGATT against Asb10 | inactive: -1.42
18 | GGAAGCCCUUUCCGUCCUUTT against Tacc2 | inactive: 0.165
19 | GCUUUAUCCACAGGUGCCATT against Olfr1350 | inactive: 0.426
20 | GGAGCUGAACAUGUUAACUTT against 2810403P18Rik | inactive: 0.406
21 | GGCAGUUGAUUCCUUUAAATT against B930060C03 | inactive: 0.465
22 | CGUGGUUCAUUUACAGGUUTT against Rnf2 | inactive: -1.84
23 | GGUGGAGUCUUCUUCCUCATT against Ube2d1 | inactive: -0.734
24 | GGACAACAUCAUUAGCCUCTT against Egr3 | inactive: 1.9
25 | GGCUGGAAUACAGUAAUUCTT against Opn1sw | inactive: -1.24
26 | GCAUUCAUGUGCUCUGCCCTT against Ifitm6 | inactive: -0.0399

Row | Sequence | z-score
27 | GGCUGACCUACAUUAGCAATT against Tas1r2 | inactive: 0.33
28 | GGUCACAGAUCGGAAUAUGTT against 4931428F04Rik | inactive: -0.0759
29 | GCAGCAGUGAAAUAGCUUCTT against Eya1 | inactive: 0.505
30 | GCACUAGUUAGAGAUCUUATT against Gm1574 | inactive: -0.153
31 | GGAUCUUUUCCAACAAAUATT against 1700129I15Rik | inactive: 0.321
32 | CCCAAGAUGGUAGCAGACATT against Tbxas1 | inactive: -1.34
33 | GGAAGAAAUGCAGUUCUAATT against 8030451K01Rik | inactive: -1.24
34 | GGAAAUAUAUCUCUAUCUCTT against Xylt2 | inactive: 1.12
35 | GGUGCAUAAAGAGAGCGAUTT against MGC58970 | inactive: -0.731
36 | CCUAAGUUCCUGAAAAUAUTT against Epha5 | inactive: -0.915
37 | CGAAUUAUCAAUAAGCACATT against Mettl3 | inactive: 0.341
38 | GGUUCUGGACAGAUGCUGUTT against Nags | inactive: 0.411
39 | CCCAAAGCUCUUGCUACUUTT against Olfr823 | inactive: -0.119
40 | CCGAAGCACUUGCUGGUAUTT against Cerk | inactive: -0.281
41 | GGUAAUGUACCUAAUAUUGTT against Cnn1 | inactive: 0.386
42 | GUCAGAGCCUCUGUCUUUUTT against Olfr342 | inactive: -0.0374
43 | GUAUUAAGACCAAACAGAUTT against Olfr623 | inactive: -0.552
44 | GGACCUGAGUUAGGAGAAUTT against Zfp105 | inactive: 1.27
45 | CCUUCUCAUCGGUCAUUCUTT against Gm1019 | inactive: -0.342
46 | GGAACUGGCCAAGUACUUCTT against Sst | inactive: 0.538
47 | CCUACUGUUGCUAUUACCATT against Oscar | inactive: -1.54
48 | GGUUCUUGUUUUUACCCGCTT against 1700020B09Rik | inactive: 0.591
49 | GGUUUGAAAUGAAACUUCATT against Nedd4l | inactive: -0.866
50 | GGGAUGUAUUUCAACAACUTT against Wwox | inactive: 0.542
51 | GGUGAUAAUAAAAAUGCAGTT against Pzp | inactive: 0.968
52 | GCCUUCGAAGUCGUCCAAGTT against Cdca5 | inactive: -1.17

Some of the entries so far, tab-delimited.
Row	Sequence	z-score
30	GCACUAGUUAGAGAUCUUATT against Gm1574	inactive: -0.153
34	GGAAAUAUAUCUCUAUCUCTT against Xylt2	inactive: 1.12

Looked up one by one from above, 2 records:
Row | Sequence | z-score
30 | GCACUAGUUAGAGAUCUUATT against Gm1574 | inactive: -0.153
33 | GGAAGAAAUGCAGUUCUAATT against 8030451K01Rik | inactive: -1.24

The listing continues:

Row | Sequence | z-score
53 | GCUUUACCUGCUCAGAAGCTT against Olfr520 | inactive: 0.553
54 | CCUUGAGAAAGCUCCAGUUTT against Cldn9 | inactive: 0.296
55 | GGAUGAAAAGCUUCAAUGUTT against Tomm70a | inactive: 0.449
56 | GCUUCAUCUUACCUACUCATT against D930020E02Rik | inactive: -0.115
57 | CGCACUAGGUGAGUUCAUCTT against Dab2ip | inactive: 0.121
58 | GGGUCUUUAAACUGAAAGATT against C230050L11 | inactive: -1.27
59 | GGAAGAAAUCAUGAGGAACTT against Xab2 | inactive: -0.231
60 | CCAAGUACCCUGAGAGUUUTT against Nte | inactive: 0.701
61 | GGCGAUUUCAACUGAAAAUTT against Gababrbp | inactive: 2.25
62 | GGUGGAUCAUACAAAUUUGTT against Pank2 | inactive: 0.087
63 | GGAAGAAGGGCUUUCUUUGTT against BC055367 | inactive: 0.576
64 | GUUCUGAAGGGCGACGUAATT against Olfr1217 | inactive: 0.701
65 | GUAACUCCUCCAUGAACUCTT against a | inactive: 0.686
66 | GGUGUAUCGCCUAUACCAGTT against 6330407G04Rik | inactive: 0.126
67 | CCAGGUUCUCCGAAUCUCUTT against Cpa1 | inactive: 1.05
68 | GGAUAAUGUGAAGUUCAAGTT against Rpl38 | inactive: -2.72
69 | GGCAGGUAAUAAAGUUUGUTT against Kcne1l | inactive: 0.498
70 | GGAUGUCAAAUCUGCUGUATT against Olfr973 | inactive: -0.702
71 | GGUUUCCAGAAGAAACUCCTT against V1re11 | inactive: 0.706
72 | GGAGAUCCGGAAUUUUUAATT against Per2 | inactive: -0.334
73 | GGCUUCCUUCAGUGAGAAUTT against 1810065E05Rik | inactive: 0.291
74 | GUGCAACGUGAGCAAUACGTT against Selenbp2 | inactive: -1.57
75 | GGUUCCUUUCCUUGAACUUTT against Mtmr3 | inactive: 0.0542
76 | GGUGUCAGUCUCUAAACGATT against Hdgfrp2 | inactive: -0.819
77 | GCAACGCACCGCUUACUAATT against 5930405J04Rik | inactive: -0.865
78 | GGCACAUCAGAAUGGUUUATT against Txnrd3 | inactive: 0.126

Reformatted field by field: entries from further up
GGAAGAAAUCAUGAGGAACTT against Xab2
  z-score: inactive: -0.231
CCAAGUACCCUGAGAGUUUTT against Nte
  z-score: inactive: 0.701
GGUUUCCAGAAGAAACUCCTT against V1re11
  z-score: inactive: 0.706

The results go on:

Row | Sequence | z-score
79 | GCUCAGAUCUUAUGAUACATT against Zfp35 | inactive: -0.776
80 | GGCCAUAGUGCAGUUAGGUTT against Cd24a | inactive: -0.488
81 | GGACCCAAAUCUUUUUAGATT against Wac | inactive: -0.703
82 | CCUGCCUUUUCCUAAUGAATT against Ovca2 | inactive: 0.573
83 | CCCACAAUCUCGACAGUCUTT against 4732471D19Rik | inactive: -0.502
84 | GGAAACUUAUGGAAAGUCUTT against 2410075D05Rik | inactive: -0.8
85 | GGUUUUUGAUAAUUGCCAUTT against 5730591C18Rik | inactive: 1.21
86 | GGUUACCUUGAGCUAUGGGTT against Rfng | inactive: -0.229
87 | GCCUCAAGAAUACGACGAUTT against Esrrbl1 | inactive: 1.03
88 | GGAGAAAGAUGGCUCAUCUTT against Itm2a | inactive: -3.07
89 | GGAAUUCAUCACUCAAAUGTT against Catsper4 | inactive: 0.876
90 | GGUGUCUCUGAAGAUUGAATT against Cdc6 | inactive: -1.03
91 | GGAUUGUCGAGAUUGCGUCTT against Tbcc | inactive: -0.092
92 | GGGACUGGAUUUCUGUAUUTT against 1110021N07Rik | inactive: 0.926
93 | GGUCUCUUCAUUCUUGUGCTT against 1700084J12Rik | inactive: 1.14
94 | CCAUUGUGUCAUACGGCUUTT against Olfr211 | inactive: -1.35
95 | GAACAACAACAGACAAGUGTT against Cxcl12 | inactive: -0.133
96 | GGAAUAGUAUACAAUAACCTT against Fbxl5 | inactive: 0.609
97 | GCUUGUUAUGAGCGGGCUUTT against Psx2 | inactive: 1.4
98 | GGAUGUUGUAGUCAAAACCTT against Ttll4 | inactive: 0.993
99 | GGUAUUCGCUUAAAAUCCATT against Stab2 | inactive: 1.42
100 | GCCACUGGUUCCAAUCGUCTT against Freq | inactive: 0.295
101 | GCCACGUACAACCUCUUCUTT against Tfcp2l4 | inactive: -0.225
102 | GGAAUUCAUCUUACAUUCCTT against Acox3 | inactive: -0.474
103 | GGCUGAAAAUGGGAAGCUUTT against MGC68323 | inactive: 1.39
104 | GGCUCUCUAGAUUCAAAAATT against Lars2 | inactive: 0.725
